## Cleaved PARP after 72 h of treatment

Values as published with doi:10.1371/journal.pone.0140310, rounded.

All values are for the listed drug together with bortezomib (0.005 µM): CC(C)C[C@H](NC(=O)[C@H](Cc1ccccc1)NC(=O)c1cnccn1)B(O)O

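Human melanoma cell lines in 1,536-well plates were treated with two drugs together for 72 h, then fixed, stained and imaged. The read-out is the fraction of cleaved-PARP-positive nuclei, in % of that fraction in the DMSO control; 200 means twice the control level of this apoptosis marker. Concentrations were fixed for each drug; these are the higher of two levels. No replicate spread is given; individual values may be noisy. The marker varies much from line to line, for technical or biological reasons.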
This is part of the screen, not chosen by result.
An entry leaves out what has no value listed here.

- N.N.[Cl][Pt][Cl] at 8 µM : A101D: 536; WM1716: 10700; MZ2-MEL: 12000; COLO 792: 407; SK-MEL-30: 1220; UACC-62: 241; IST-MEL1: 1400; IPC-298: 2200; RVH-421: 4840; UACC-257: 45.4; MeWo: 2780; SK-MEL-5: 1430; MEL-HO: 374; C32: 1570; A375: 321; WM3526: 1550; G-361: 8160; WM1745: 688; SK-MEL-2: 131; COLO 800: 194; COLO 829: 4180; WM451Lu: 660; WM115: 4210; RPMI-7951: 467; WM3619: 2380; LOX IMVI: 81.1; A2058: 1710; SK-MEL-28: 390; LB2518-MEL: 3350
- CC(=O)c1c(C)c2cnc(Nc3ccc(N4CCNCC4)cn3)nc2n(C2CCCC2)c1=O at 0.2 µM : A101D: 550; WM1716: 8730; MZ2-MEL: 11800; COLO 792: 254; SK-MEL-30: 638; UACC-62: 216; IST-MEL1: 744; IPC-298: 2120; RVH-421: 554; UACC-257: 135; MeWo: 1550; SK-MEL-5: 851; MEL-HO: 110; C32: 1210; A375: 190; WM3526: 841; G-361: 13600; WM1745: 319; SK-MEL-2: 93.3; COLO 800: 55.9; COLO 829: 3310; WM451Lu: 272; WM115: 2970; RPMI-7951: 1390; WM3619: 905; LOX IMVI: 316; A2058: 1910; SK-MEL-28: 286; LB2518-MEL: 4310
- COC(=O)c1sccc1S(=O)(=O)Nc1ccc(Nc2ccccc2)cc1OC at 5 µM : A101D: 758; WM1716: 10700; MZ2-MEL: 20200; COLO 792: 472; SK-MEL-30: 557; UACC-62: 266; IST-MEL1: 1430; IPC-298: 4570; RVH-421: 992; UACC-257: 68.5; MeWo: 1950; SK-MEL-5: 2070; MEL-HO: 444; C32: 467; A375: 99.3; WM3526: 2180; G-361: 9200; SK-MEL-2: 236; COLO 800: 78.2; COLO 829: 2870; WM451Lu: 6850; WM115: 166; RPMI-7951: 836; WM3619: 3090; 501mel: 706; LOX IMVI: 38.6; A2058: 2220; SK-MEL-28: 229; LB2518-MEL: 8710
- C[C@]1(c2nc3c(C(N)=O)cccc3[nH]2)CCCN1 at 7 µM : A101D: 371; WM1716: 13200; MZ2-MEL: 16600; COLO 792: 450; SK-MEL-30: 928; UACC-62: 448; IST-MEL1: 292; IPC-298: 2340; RVH-421: 217; UACC-257: 151; MeWo: 2300; SK-MEL-5: 2540; MEL-HO: 999; C32: 2860; A375: 121; WM3526: 2960; G-361: 3460; WM1745: 411; SK-MEL-2: 106; COLO 800: 208; COLO 829: 3280; WM451Lu: 686; WM115: 2980; RPMI-7951: 1540; WM3619: 6650; LOX IMVI: 148; A2058: 1500; SK-MEL-28: 211; LB2518-MEL: 5510
- Nc1cccc2c1CN(C1CCC(=O)NC1=O)C2=O (stereo not drawn) at 5 µM : A101D: 463; WM1716: 8490; MZ2-MEL: 31200; COLO 792: 372; SK-MEL-30: 395; UACC-62: 198; IST-MEL1: 1130; IPC-298: 5140; RVH-421: 522; UACC-257: 42.8; MeWo: 1410; SK-MEL-5: 3950; MEL-HO: 145; C32: 795; A375: 220; WM3526: 2030; G-361: 9430; WM1745: 259; SK-MEL-2: 169; COLO 800: 126; COLO 829: 6000; WM451Lu: 220; WM115: 2950; RPMI-7951: 1940; WM3619: 785; LOX IMVI: 264; A2058: 1360; SK-MEL-28: 252; LB2518-MEL: 3100
- Cc1cc([N+](=O)[O-])ccc1NS(=O)(=O)c1cc(Cl)ccc1Cl at 5 µM : A101D: 1840; WM1716: 7590; MZ2-MEL: 16000; COLO 792: 275; SK-MEL-30: 482; UACC-62: 314; IST-MEL1: 449; IPC-298: 3360; RVH-421: 704; UACC-257: 83.1; MeWo: 4460; SK-MEL-5: 415; MEL-HO: 256; C32: 197; A375: 259; WM3526: 2040; G-361: 16400; SK-MEL-2: 156; COLO 800: 85.2; COLO 829: 3050; WM451Lu: 1890; WM115: 303; RPMI-7951: 555; WM3619: 3260; 501mel: 1500; LOX IMVI: 118; A2058: 633; SK-MEL-28: 280; LB2518-MEL: 12000
- COc1cc([C@@H]2c3cc4c(cc3[C@@H](O[C@@H]3O[C@@H]5CO[C@@H](C)O[C@H]5[C@H](O)[C@H]3O)[C@H]3COC(=O)[C@H]23)OCO4)cc(OC)c1O at 0.1 µM : A101D: 184; WM1716: 13000; MZ2-MEL: 20500; COLO 792: 282; SK-MEL-30: 595; UACC-62: 180; IST-MEL1: 357; IPC-298: 881; RVH-421: 164; UACC-257: 40.0; MeWo: 1590; SK-MEL-5: 2520; MEL-HO: 75.2; C32: 880; A375: 64.5; WM3526: 3250; G-361: 6050; WM1745: 391; SK-MEL-2: 344; COLO 829: 3430; WM451Lu: 586; WM115: 1520; RPMI-7951: 1530; WM3619: 15400; LOX IMVI: 232; A2058: 2130; SK-MEL-28: 201; LB2518-MEL: 1080
- CO[C@@H]1[C@H](N(C)C(=O)c2ccccc2)C[C@H]2O[C@]1(C)n1c3ccccc3c3c4c(c5c6ccccc6n2c5c31)C(=O)NC4 at 0.4 µM : A101D: 1100; WM1716: 21400; MZ2-MEL: 24700; COLO 792: 506; SK-MEL-30: 1520; UACC-62: 249; IST-MEL1: 600; IPC-298: 4740; RVH-421: 2730; UACC-257: 125; MeWo: 3630; SK-MEL-5: 2790; MEL-HO: 375; C32: 2030; WM3526: 5090; G-361: 12200; WM1745: 656; SK-MEL-2: 415; COLO 800: 168; COLO 829: 3000; WM451Lu: 1940; WM115: 355; RPMI-7951: 4450; WM3619: 2340; LOX IMVI: 372; A2058: 3740; SK-MEL-28: 94.8; LB2518-MEL: 14100